The record followed here is article doi:10.1101/209809.

For part of these data: A negative result means that nothing was seen under these conditions. For part of these data: A weaker result is weaker than the reference pair of the same experiment.

Common to all, as to experiment: EMSA
The subject of data set [1] is CPSF-160 + WDR33 (1-572) + CPSF-30. Conditions: lower affinity than AAUAAA.
For another data set, the system named is CPSF-160 + WDR33 (1-572). The conditions noted are these: only weak binding, no CPSF-30.
A further data set has as its system MBP-CPSF-30 (human). Conditions: essentially no binding; residues 1-244.

For the sequence “AACCUCCAAGAAACAAC [17-mer variant PAS RNA (AAgAAA)]”, in data set [1], the binding result is listed as “binds more weakly”.
For the sequence “AACCUCCAAUAAACAAC [17-mer PAS RNA (AAUAAA)]”, the binding result in the data set on CPSF-160 + WDR33 (1-572) is given as “binds more weakly”; in the data set on MBP-CPSF-30 (human) it was “no binding”.
